In patent US20250154203 (published 2025):
Plain letter strings leave the end groups untold.

Columns and labels:
[1] = general procedure: Fmoc solid-phase peptide synthesis; Wang-Resin; conditions: whole synthesis, area %; run 1
[2] = general procedure: Fmoc solid-phase peptide synthesis; H-L-Asp(OtBu)-2CT-Resin; conditions: whole synthesis, area %; run 1

## DGSVVVNKVSELPAGHGLNVNTLSYGDLAAD
[1]
  final HPLC purity: 89.84%
[2]
  final HPLC purity: 96.51%
